These are yes or no findings as the source states them, for the method shown. Some binding calls cover weakened binding; strength is not graded here. Each block holds one molecule with its values, some of them ahead of it.
Key:
Assay in all cases: interferometric light scattering microscopy (iSCAM); OneMP (Refeyn), 525 nm laser; protein 15–400 nM in sodium and magnesium-free DPBS pH 7.4; 19–20°C; contrasts converted into masses with NativeMark; self-association, oligomeric species in solution; both purified
[1] = biological target: Human recombinant SP-A2 (surfactant protein A2) (human) (UniProt Q8IWL1)
[2] = biological target: T1, Human recombinant SP-D (surfactant protein D) (human), P35247; settings: remark: other sources report otherwise
T1 chain: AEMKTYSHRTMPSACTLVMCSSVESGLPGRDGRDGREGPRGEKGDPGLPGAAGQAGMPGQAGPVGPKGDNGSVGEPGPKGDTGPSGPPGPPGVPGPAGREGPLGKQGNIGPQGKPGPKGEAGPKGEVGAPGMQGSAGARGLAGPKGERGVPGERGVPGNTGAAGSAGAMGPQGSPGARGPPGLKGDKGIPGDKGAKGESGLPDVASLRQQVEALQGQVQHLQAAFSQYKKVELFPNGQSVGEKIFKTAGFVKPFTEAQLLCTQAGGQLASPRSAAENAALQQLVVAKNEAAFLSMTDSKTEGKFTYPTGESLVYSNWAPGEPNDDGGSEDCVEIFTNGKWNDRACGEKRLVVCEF

By UniProt entry, the sequences of proteins in these tests, tags left out. Residues count along the entry.
UniProt Q8IWL1, residues 21-248: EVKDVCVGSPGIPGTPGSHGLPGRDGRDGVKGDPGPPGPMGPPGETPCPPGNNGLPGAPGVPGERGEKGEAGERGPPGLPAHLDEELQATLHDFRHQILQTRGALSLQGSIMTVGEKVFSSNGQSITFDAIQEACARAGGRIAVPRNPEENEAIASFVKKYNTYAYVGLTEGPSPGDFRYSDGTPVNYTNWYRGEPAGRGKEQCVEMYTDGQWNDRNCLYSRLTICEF

[3] = biological target: T2, Human SP-D isolated from bronchoalveolar lavage fluid of patients with pulmonary alveolar proteinosis (human), P35247; settings: remark: other sources report otherwise
T2 chain: T1 chain

binding [1]: binds
Molecule: Human recombinant SP-A2 (surfactant protein A2) (from UniProt Q8IWL1 21-248)

binding [2]: binds
B1: Human recombinant SP-D (surfactant protein D), P35247 21-375 (protein)
chain: T1 chain

binding [3]: binds
B2: Human SP-D isolated from bronchoalveolar lavage fluid of patients with pulmonary alveolar proteinosis, P35247 21-375 (protein)
chain: T1 chain

Reference: article PMC11380953, “Multivalent, calcium-independent binding of surfactant protein A and D to sulfated glycosaminoglycans of the alveolar epithelial glycocalyx” (American Journal of Physiology - Lung Cellular and …, 2024)
